The values below come from the supplement of paper PMC8256030.

Experiment [1] has as its system HEK293T. Kind of experiment: percent viability (nuclei count) relative to control; higher = more viable cells. To be noted: 10 µM; 24 h.
Experiment [2] deals with SARS-CoV-2 -1 PRF reporter mCherry-FSE-GFP(-1). Kind of experiment: mCherry (red) intensity as percent of control; higher = higher upstream reporter expression. To be noted: 10 µM; 24 h; HEK293T.
Experiment [3] has the same test system. Kind of experiment: percent effect, decrease of GFP/mCherry ratio (-1 PRF reporter) relative to controls; higher = stronger frameshift inhibition. To be noted: 10 µM; 24 h; HEK293T.

The other results are listed elsewhere or left out. This data set is noisy: repeats of one test often differ as much as different tests do.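 HEK293T cells were given each compound shortly before transfection with a reporter in which red mCherry is followed by the SARS-CoV-2 frameshift element and then GFP in the −1 frame, so GFP appears only after frameshifting.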

In the case of `CC[C@H]1CN2CCc3cc(OC)c(OC)cc3[C@@H]2C[C@@H]1C[C@H]1NCCc2cc(OC)c(OC)cc21`, the percent viability in experiment [1] stood at 5.72%. This molecule also returned a mCherry in experiment [2] of 15.4%. Further, the percent effect in experiment [3] was -15.1%.

For the molecule `NC1=NC(=O)N2CC12` (centres undefined), the percent viability in experiment [1] worked out at 302%. The molecule also yielded a mCherry in experiment [2] of 123%. For the same molecule, in experiment [3], the percent effect is -3.98%.

The molecule `O=P(O)(O)C(O)(Cc1cnc2ccccn12)P(=O)(O)O` [minodronic acid] showed a mCherry in experiment [2] of 98.8%. For the same molecule, the percent effect in experiment [3] is -2.55%.

For the molecule `COc1cc(C2c3cc4c(cc3C(O)C(CO)C2C(=O)O)OCO4)cc(OC)c1OC.COc1cc(C2c3cc4c(cc3C(O)C(CO)C2C(=O)O)OCO4)cc(OC)c1OC.COc1cc(C2c3cc4c(cc3C(O)C3COC(=O)C23)OCO4)cc(OC)c1OC.COc1cc(C2c3cc4c(cc3C(O)C3COC(=O)C23)OCO4)cc(OC)c1OC` (centres undefined) [Podophyllin], in experiment [1], the percent viability was 19.4%. The molecule further came in with a mCherry in experiment [2] of 107%. In experiment [3], the percent effect is -1.68%.

Turning to `CC[C@@H](C(=O)[C@@H](C)[C@@H](O)[C@H](C)CCc1ccc(C)c(O)c1C(=O)O)[C@H]1O[C@](CC)([C@H]2CC[C@](O)(CC)[C@H](C)O2)C[C@@H]1C` [lasalocid], the mCherry in experiment [2] came to 56.4%. Also, the percent effect in experiment [3] was -5.45%.

In the case of `C[C@@H](CO)NC(=O)[C@@H]1C=C2c3cccc4[nH]cc(c34)C[C@H]2N(C)C1`, in experiment [1], the percent viability came out at 283%. Besides, the mCherry in experiment [2] came out at 76.9%. In experiment [3], the percent effect is -3.85%.

For the molecule `O=C1c2ccccc2S(=O)(=O)N1CCCCN1CCN(c2ncccn2)CC1` [ipsapirone], in experiment [2], the mCherry worked out at 115%. For the same molecule, the percent effect in experiment [3] is 1.45%.

Consider `OC[C@@H](O)[C@H]1O[C@@H]2O[C@H](C(Cl)(Cl)Cl)O[C@@H]2[C@H]1O`, for which, in experiment [1], the percent viability stood at 174%. Moreover, in experiment [2], the mCherry was 110%. For the same molecule, the percent effect in experiment [3] was -3.84%.

With `O=C1NCN(c2ccccc2)C12CCN(CCCOc1ccc(F)cc1)CC2` [spiramide], in experiment [1], the percent viability was 35.4%. Moreover, the mCherry in experiment [2] is 89.2%. In addition, the percent effect in experiment [3] was -2.76%.
